Laboratory results reported in publication PMC7819943, “Rice protein-binding microarrays: a tool to detect cis-acting elements near promoter regions in rice”.
The list shows a part of the results.

Chains of the proteins cited; added tags and fusions are not shown.
UniProt Q0JBA9, entry or part of it: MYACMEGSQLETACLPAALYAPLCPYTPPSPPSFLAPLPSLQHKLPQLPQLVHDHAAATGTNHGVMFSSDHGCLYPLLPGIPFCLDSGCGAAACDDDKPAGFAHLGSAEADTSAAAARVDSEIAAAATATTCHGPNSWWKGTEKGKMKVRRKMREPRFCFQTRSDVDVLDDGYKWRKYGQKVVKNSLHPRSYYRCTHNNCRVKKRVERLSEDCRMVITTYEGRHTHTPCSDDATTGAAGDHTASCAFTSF

Each sequence was assayed against OsWRKY34 (Oryza sativa, UniProt Q0JBA9 1-250) (assay: protein-binding microarray (RPBM); PBS, 2% BSA, 51.3 ng/ul salmon testes DNA, 50 uM zinc acetate, 200 nM TF, 25 C, 1 h; high values mean tight binding). Settings: protein: recombinant; tags: N-terminal polyhistidine and DsRed monomer fusion (pET32a); label: CyDye5-dUTP incorporated in the synthesized complementary strand; 3' TTTTT single-stranded linker to array surface; dsDNA, one strand shown.
Outline: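 The binding signal for each feature is its fluorescence intensity in arbitrary units. An Axon 4000B scanner was used to read a custom Agilent array that had been made double-stranded with Cy5-dUTP primer extension, blocked with 2% BSA, incubated at 25 °C for 1 h with 200 nM protein in PBS, 2% BSA, salmon testes DNA and 50 µM zinc acetate, and washed. The protein was an N-terminal polyhistidine–DsRed transcription factor fusion from E. coli BL21-CodonPlus, purified on Ni–NTA.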

Q: For “CCTTTTCTCATCTCTCTCTCCTTTCTTTTTAAATTTTATTCGGAGTCACCTAGTGCAG”, which binding signal is on record?
A: Its binding signal is 10100 fluorescence intensity (a.u.).

Q: “CTCTCTCTCTCTCTCTCTCTCGCGCGCGCGCGCGCGCAAGCGGAGTCACCTAGTGCAG” was tested. Which binding signal did it give?
A: Its binding signal is 9220 fluorescence intensity (a.u.).

Q: How did the binding signal turn out when “ATTCACCTTAACCAACCTCAATCTGGCATAACACTCAATCCGGAGTCACCTAGTGCAG” was run?
A: The binding signal was 8100 fluorescence intensity (a.u.).

Q: “TTGAATAAATTTGACTAGAAAAAAAGTCAAACGACTTACACGGAGTCACCTAGTGCAG” was tested. Which binding signal did it give?
A: The binding signal was 9300 fluorescence intensity (a.u.).

Q: “TCCGGGCTGGGTGGGTGGGGTGGGGATGGAGCTTGCCTGGCGGAGTCACCTAGTGCAG” was tested. Which binding signal did it give?
A: The binding signal was 24100 fluorescence intensity (a.u.).

Q: “AATTCGTACTTTTTCCTTTGTGTTTTGTCTATCTTAAATTCGGAGTCACCTAGTGCAG” was tested. Which binding signal did it give?
A: The binding signal was 14300 fluorescence intensity (a.u.).

Q: With “CTCTCTCTCTCTCTCTCTCTCTCTCTCTTCGCCGCGCGGCCGGAGTCACCTAGTGCAG” as the sequence, how does the binding signal read?
A: Its binding signal is 18300 fluorescence intensity (a.u.).

Q: For “GAACCCTTCTTCTCTTCTCGTTCCTGCTGTTTCTTGTCTGCGGAGTCACCTAGTGCAG”, which binding signal is on record?
A: The binding signal was 8200 fluorescence intensity (a.u.).

Q: How did the binding signal turn out when “AAACGGCAAAACACCAACCATTTCCTGAACTACGCTCTGACGGAGTCACCTAGTGCAG” was run?
A: Its binding signal is 9340 fluorescence intensity (a.u.).

Q: For “CGTTTCACAATGTAAGTCATTATAATATTTCCCACATGCACGGAGTCACCTAGTGCAG”, which binding signal is on record?
A: The binding signal was 9350 fluorescence intensity (a.u.).

Q: How did the binding signal turn out when “TGCTCGCCCGTCGTGTGGACATTTTTTTTTCGGGGTTTTTCGGAGTCACCTAGTGCAG” was run?
A: Its binding signal is 14900 fluorescence intensity (a.u.).

Q: For “GCCCGCCGCGGCGCCGCCCTGTGTGCCGCCGCCGCTGACTCGGAGTCACCTAGTGCAG”, which binding signal is on record?
A: The binding signal was 8320 fluorescence intensity (a.u.).

Q: For “CGCCAGCGTCTCCCCGTAGGTCAGTCTCGCGCCGCCGCCACGGAGTCACCTAGTGCAG”, which binding signal is on record?
A: Its binding signal is 8030 fluorescence intensity (a.u.).

Q: Which binding signal does the source give for “CTATGATTTTTTCCTTTCCCGCTTGCAGAGTCTTAAAGTACGGAGTCACCTAGTGCAG” here?
A: The binding signal was 10100 fluorescence intensity (a.u.).

Q: With “GTTCGTCTTACAGTCAGCTACCATCTCACTCCGTACCATTCGGAGTCACCTAGTGCAG” as the sequence, how does the binding signal read?
A: Its binding signal is 8080 fluorescence intensity (a.u.).

Q: “GTACTCACTCTCAGTGTCACTCACTTCACTGCTTACACCGCGGAGTCACCTAGTGCAG” was tested. Which binding signal did it give?
A: Its binding signal is 9970 fluorescence intensity (a.u.).

Q: For “AGACAGGCAATCCCTCCTTCTTTAGTTGTTGTTTTTTAAACGGAGTCACCTAGTGCAG”, which binding signal is on record?
A: Its binding signal is 9960 fluorescence intensity (a.u.).

Q: How did the binding signal turn out when “CAATGTTGTCTTGACTTTTTTTTAACGTTTAACCATTTGTCGGAGTCACCTAGTGCAG” was run?
A: The binding signal was 8940 fluorescence intensity (a.u.).

Q: With “CGACCGCCCAGGCGCCCACCGCCTCCGCCGCTCGCTTCACCGGAGTCACCTAGTGCAG” as the sequence, how does the binding signal read?
A: Its binding signal is 8290 fluorescence intensity (a.u.).

Q: Which binding signal does the source give for “CTCTAATTATAATACCATTATTTGGCACCGAACTTTATCACGGAGTCACCTAGTGCAG” here?
A: The binding signal was 8840 fluorescence intensity (a.u.).

Q: Which binding signal does the source give for “CTTGTCCCTTGCTCCCATTCACCACCAGAAAATATACTTTCGGAGTCACCTAGTGCAG” here?
A: Its binding signal is 8050 fluorescence intensity (a.u.).

Q: How did the binding signal turn out when “TCTCGTTTGTGGCTTCGCTTGCATAGTTGCTGTATCTTTCCGGAGTCACCTAGTGCAG” was run?
A: Its binding signal is 8640 fluorescence intensity (a.u.).

Q: Which binding signal does the source give for “GTGTGCGTGCGTGGCTAACTCCTCCTCACCCTCGCTCGATCGGAGTCACCTAGTGCAG” here?
A: The binding signal was 8180 fluorescence intensity (a.u.).

Q: How did the binding signal turn out when “TGTCCTTCTTCTTCGCTATTATGCTTTCTTTTCCTTTTTACGGAGTCACCTAGTGCAG” was run?
A: The binding signal was 8060 fluorescence intensity (a.u.).

Q: For “TATATATACATATGCCTATACTATACTCCCTCCGTTAAAACGGAGTCACCTAGTGCAG”, which binding signal is on record?
A: Its binding signal is 8870 fluorescence intensity (a.u.).

Q: “TGGAAAGGGTAGGAGGGTTGGATATATGGTAGTTGGGGAACGGAGTCACCTAGTGCAG” was tested. Which binding signal did it give?
A: The binding signal was 8920 fluorescence intensity (a.u.).

Q: With “GGTGCTCCGCCTCCCGGGGCAGGGTTTCAAGAGGGTGGGTCGGAGTCACCTAGTGCAG” as the sequence, how does the binding signal read?
A: The binding signal was 10700 fluorescence intensity (a.u.).

Q: With “CCTCGCCCTTGCCTCGTTCCTCACCCATCCTTCCCTCTCGCGGAGTCACCTAGTGCAG” as the sequence, how does the binding signal read?
A: Its binding signal is 9670 fluorescence intensity (a.u.).

Q: “ACACCGGCTATTTTTACATTTCACCACTAATCATGCATCTCGGAGTCACCTAGTGCAG” was tested. Which binding signal did it give?
A: Its binding signal is 9050 fluorescence intensity (a.u.).

Q: How did the binding signal turn out when “AATGTTTGATGTGACAAAATTTCTAGGGTGGGATCTAAACCGGAGTCACCTAGTGCAG” was run?
A: The binding signal was 9190 fluorescence intensity (a.u.).

Q: “GTTCTTAAGTTTTTTCATTTATTACATGTCAAAAAGTTTTCGGAGTCACCTAGTGCAG” was tested. Which binding signal did it give?
A: Its binding signal is 8490 fluorescence intensity (a.u.).

Q: “GGTGGTTTGACGATCGTTCGTGCAGGTACAACTACATATCCGGAGTCACCTAGTGCAG” was tested. Which binding signal did it give?
A: The binding signal was 8650 fluorescence intensity (a.u.).

Q: With “GAAACAGCTCTATATGTATTTCTACTGGTACTACACCTATCGGAGTCACCTAGTGCAG” as the sequence, how does the binding signal read?
A: Its binding signal is 8480 fluorescence intensity (a.u.).

Q: Which binding signal does the source give for “ATGTAGTATTCTTTAACTCCATCATCACACTTTGGCCACCCGGAGTCACCTAGTGCAG” here?
A: Its binding signal is 8050 fluorescence intensity (a.u.).

Q: “TGGTTATGTCATGTCCTTTTGCTTACATATTAGCAACTCGCGGAGTCACCTAGTGCAG” was tested. Which binding signal did it give?
A: The binding signal was 10200 fluorescence intensity (a.u.).

Q: With “GCTGTTTTCTTCTACATTGCGTCCGCGTGGCAATCCAGTCCGGAGTCACCTAGTGCAG” as the sequence, how does the binding signal read?
A: Its binding signal is 8980 fluorescence intensity (a.u.).

Q: Which binding signal does the source give for “GGATGCATGCTGATGATATATGCTCCTTTTCTTTTGTTTCCGGAGTCACCTAGTGCAG” here?
A: Its binding signal is 9470 fluorescence intensity (a.u.).

Q: How did the binding signal turn out when “CGTGCCCTACGCCGCTGCTGTTCGTCGCCCGGTCTCTAGTCGGAGTCACCTAGTGCAG” was run?
A: The binding signal was 11200 fluorescence intensity (a.u.).

Q: For “AGGTGGAGGTGGAGCGGGTGGTTGTCCGGCGTCAGGTTGACGGAGTCACCTAGTGCAG”, which binding signal is on record?
A: Its binding signal is 8280 fluorescence intensity (a.u.).

Q: For “CTAGGCTGTGTTGTTGTGTTCTTAGGTGAGGATTGGAAAACGGAGTCACCTAGTGCAG”, which binding signal is on record?
A: The binding signal was 8050 fluorescence intensity (a.u.).

Q: How did the binding signal turn out when “CACGTAATCGCGAACGCGCGACATGTACGCACAGCCACCGCGGAGTCACCTAGTGCAG” was run?
A: The binding signal was 8140 fluorescence intensity (a.u.).

Q: With “AGATGCTGATATACACACACAGACACACAATTTCTTTTCTCGGAGTCACCTAGTGCAG” as the sequence, how does the binding signal read?
A: The binding signal was 9670 fluorescence intensity (a.u.).

Q: “GCTGGCTACCAATCAGCTGCTTCTCAGAATCTTAAGCTCCCGGAGTCACCTAGTGCAG” was tested. Which binding signal did it give?
A: The binding signal was 8590 fluorescence intensity (a.u.).

Q: Which binding signal does the source give for “AACTACAGTTATCTGTTCGTTTTGGATGGTTATCTGGTGACGGAGTCACCTAGTGCAG” here?
A: Its binding signal is 8430 fluorescence intensity (a.u.).

Q: For “ATGGTTTTTAATTTTATTTTTTATATATGCTTGACATGTGCGGAGTCACCTAGTGCAG”, which binding signal is on record?
A: Its binding signal is 8760 fluorescence intensity (a.u.).

Q: “CTCCATTTTTTGCCATACACGGACCGCACCACATCGTCCGCGGAGTCACCTAGTGCAG” was tested. Which binding signal did it give?
A: Its binding signal is 10900 fluorescence intensity (a.u.).

Q: For “CGTCCCAACCCCGCGGCCGCTTCGTTCTTGGTCGTCCTCGCGGAGTCACCTAGTGCAG”, which binding signal is on record?
A: Its binding signal is 14200 fluorescence intensity (a.u.).

Q: Which binding signal does the source give for “GTCTCTATGTCTCTATTAACGTATTTTGTAATTAGTTTTTCGGAGTCACCTAGTGCAG” here?
A: The binding signal was 9780 fluorescence intensity (a.u.).

Q: For “AGGCGACCTCACCTACGCGCGCGGCGCGCCCCTGGCCATGCGGAGTCACCTAGTGCAG”, which binding signal is on record?
A: The binding signal was 8730 fluorescence intensity (a.u.).

Q: Which binding signal does the source give for “TTGTTTCGTTTGGTCAAACATGGACCAGATTATTCTAAACCGGAGTCACCTAGTGCAG” here?
A: Its binding signal is 8890 fluorescence intensity (a.u.).

Q: Which binding signal does the source give for “TATTAAAACCTCCAAATTCCGCTTGCAAGATTGTGTTTTCCGGAGTCACCTAGTGCAG” here?
A: Its binding signal is 8120 fluorescence intensity (a.u.).

Q: “ACGTGGCACTCTCTCGAGAGCTCCCGCCCGCCTATATAAACGGAGTCACCTAGTGCAG” was tested. Which binding signal did it give?
A: Its binding signal is 9940 fluorescence intensity (a.u.).

Q: For “TGGACGCCGTCGCCCTCAACTCCCTTCTCTCTGTCATGTGCGGAGTCACCTAGTGCAG”, which binding signal is on record?
A: The binding signal was 8380 fluorescence intensity (a.u.).

Q: For “CTCCCGTTGCAAGTTGTCCCCATCCCTGGTGCTCTTGGTCCGGAGTCACCTAGTGCAG”, which binding signal is on record?
A: The binding signal was 8890 fluorescence intensity (a.u.).
